The results are deposited in PubChem (AID504749; NCATS, 2011).

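A panel of P. falciparum strains inside erythrocytes is exposed to compounds for three days, then a DNA-binding dye reports the amount of parasite DNA. Each compound was titrated across a series from about 0.000037 to 29 µM. The number is the fitted AC50, the concentration giving a half-maximal change in signal; a lower value means higher potency, whether the curve shows a decrease or an increase. Calls follow the curve class and fit quality: every row here is inconclusive, covering signal-raising curves and weak, poorly fitted, partial or highest-dose-only inhibition curves.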

Values are in µM. All entries here are filed as inconclusive. These entries are mostly ones the record files as inconclusive; other results of the assay are not listed here. A potency from a partial, single-point or poor curve is only a rough figure.

- CN(C)C(=O)Nc1ccc(Cl)c(Cl)c1 [GB4] | potency 13.46 µM (inhibitor, single point)
- CN(C)C(=O)Nc1ccc(Cl)c(Cl)c1 [SC27B] | potency 7.943 µM (inhibitor, partial curve)
- CN(C)C(=O)Nc1ccc(Cl)c(Cl)c1 [PAD] | potency 11.22 µM (inhibitor, single point)
- CN(C)C(=O)Nc1ccc(Cl)c(Cl)c1 [CP194] | potency 7.569 µM (inhibitor, partial curve)
- CN(C)C(=O)Nc1ccc(Cl)c(Cl)c1 [CP266] | potency 19.01 µM (inhibitor, single point)
- CN(C)C(=O)Nc1ccc(Cl)c(Cl)c1 [CP260] | potency 10 µM (inhibitor, partial curve)
- CN(C)C(=O)Nc1ccc(Cl)c(Cl)c1 [CP297] | potency 5.358 µM (inhibitor, partial curve, poor fit)
- CN(C)C(=O)Nc1ccc(Cl)c(Cl)c1 [CP305] | potency 6.012 µM (inhibitor, partial curve, poor fit)
- CN(C)C(=O)Nc1ccc(Cl)c(Cl)c1 [PC26] | potency 6.746 µM (inhibitor, partial curve)
- CN(C)C(=O)Nc1ccc(Cl)c(Cl)c1 [CP335] | potency 15.1 µM (inhibitor, single point)
- CN(C)C(=O)Nc1ccc(Cl)c(Cl)c1 [Dd2] | potency 3.981 µM (inhibitor, partial curve, poor fit)
- CN(C)C(=O)Nc1ccc(Cl)c(Cl)c1 [CP329] | potency 6.746 µM (inhibitor, partial curve)
- CN(C)C(=O)Nc1ccc(Cl)c(Cl)c1 [ICS] | potency 8.912 µM (inhibitor, partial curve)
- CN(C)C(=O)Nc1ccc(Cl)c(Cl)c1 [CP315] | potency 13.46 µM (inhibitor, partial curve)
- CN(C)C(=O)Nc1ccc(Cl)c(Cl)c1 [PC15] | potency 11.22 µM (inhibitor, single point)
- CN(C)C(=O)Nc1ccc(Cl)c(Cl)c1 [HB3] | potency 5.012 µM (inhibitor, partial curve)
- CN(C)C(=O)Nc1ccc(Cl)c(Cl)c1 [CP238] | potency 10 µM (inhibitor, single point)
- CN(C)C(=O)Nc1ccc(Cl)c(Cl)c1 [CP237] | potency 7.943 µM (inhibitor, partial curve)

Once more, the final 2:

structure	condition	potency (µM)	curve
CN(C)C(=O)Nc1ccc(Cl)c(Cl)c1	CP238	10	inhibitor, single point
CN(C)C(=O)Nc1ccc(Cl)c(Cl)c1	CP237	7.943	inhibitor, partial curve